In publication PMC5805746 one finds binding data, which are given here for 1 molecule.

No constants are given. Whether binding was seen depends on the method and setting. In cells and extracts the contact can be indirect. Here binding means that the protein was enriched with, or labelled near, the bait; the list need not be complete. Sequences can lack the tags named with a protein.

Assay [1] deals with T1, Lsm2 (myc epitope-tagged) (S. pombe) (UniProt O94408).
T1 sequence: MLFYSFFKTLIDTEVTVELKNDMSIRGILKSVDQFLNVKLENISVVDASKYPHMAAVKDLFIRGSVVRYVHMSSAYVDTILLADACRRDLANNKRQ
The assay can be described thus: affinity purification with mass spectrometry; immunoprecipitation of individual myc epitope-tagged Sm and Lsm subunits from S. pombe strains; associated proteins identified by mass spectrometry; control IPs in parallel.

The target of assay [2] is T2, Lsm8 (myc epitope-tagged) (S. pombe) (UniProt O74483).
T2 sequence: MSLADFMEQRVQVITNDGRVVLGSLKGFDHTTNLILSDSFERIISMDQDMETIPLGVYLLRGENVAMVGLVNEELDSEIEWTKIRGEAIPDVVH
The description is as above.

B1: Pof8 (protein, UniProt O13795 1-402)
chain: MFVPRQLNVRKIKAFTGKENNSIADGNNNKLKDEHYKHNEASKEPSHSISGGLMLNQQDRQLIEPLNPDFLSAVDSILEIYFHRERQKEKVHLAFLIQQDDFWKGIRPNPTQNNLKYALSYVTNALFHFDNSSHMVIRNENIVLPLDIPLYDRIIYVEPVPATLSNKSLLLAGKLRKYLKEFLPYVDAIGTPEGYAFVILYKKVDQSALSKLPVPPGWVLLTRKEWTNREEKYFENQLHLVKASSSDVSNSSNSFPENRYPKLTKVEKQMTKSVSKTSQTDKDEDNLDFTKNLLTRIKNLHPLTNKSTIHSLLSYVFSRQTQNIACEPMYIDYRKDETEAIIRWKTPLHAETCINAFRTQERKQNSHDDIRAHRKKGSSRPFLIAELITGEEEKNYWRMLKK
Consider B1, for which the binding result in assay [1] and in assay [2] was “binds” throughout.
